Article PMC12130296
No constants are given. Whether binding was seen depends on the method and setting. In cells and extracts the contact can be indirect. Some results given as binding are weak or reduced against the parent protein; the word gives no strength. Values belong to the binder of their own block, whether it stands above or below them.

Sequences of proteins named here, by UniProt entry; tags and fusion partners are left off.
UniProt Q13546: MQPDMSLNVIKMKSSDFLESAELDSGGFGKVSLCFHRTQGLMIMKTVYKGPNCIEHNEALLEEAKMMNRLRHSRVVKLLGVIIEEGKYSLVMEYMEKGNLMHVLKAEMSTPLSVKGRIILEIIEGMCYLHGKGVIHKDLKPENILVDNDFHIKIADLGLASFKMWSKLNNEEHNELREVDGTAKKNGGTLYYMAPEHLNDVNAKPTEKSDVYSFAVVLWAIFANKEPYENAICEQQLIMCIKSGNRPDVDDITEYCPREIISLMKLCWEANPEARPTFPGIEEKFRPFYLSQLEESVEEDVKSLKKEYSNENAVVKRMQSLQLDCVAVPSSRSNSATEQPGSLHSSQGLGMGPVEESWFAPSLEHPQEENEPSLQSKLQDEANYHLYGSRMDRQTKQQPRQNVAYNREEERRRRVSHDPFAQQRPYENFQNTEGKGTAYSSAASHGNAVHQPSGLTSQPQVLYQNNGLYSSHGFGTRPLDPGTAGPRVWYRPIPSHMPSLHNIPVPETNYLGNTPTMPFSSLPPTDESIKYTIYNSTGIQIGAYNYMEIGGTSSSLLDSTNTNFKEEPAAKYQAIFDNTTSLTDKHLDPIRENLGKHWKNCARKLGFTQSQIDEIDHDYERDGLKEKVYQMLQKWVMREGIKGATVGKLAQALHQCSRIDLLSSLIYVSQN
UniProt Q13158: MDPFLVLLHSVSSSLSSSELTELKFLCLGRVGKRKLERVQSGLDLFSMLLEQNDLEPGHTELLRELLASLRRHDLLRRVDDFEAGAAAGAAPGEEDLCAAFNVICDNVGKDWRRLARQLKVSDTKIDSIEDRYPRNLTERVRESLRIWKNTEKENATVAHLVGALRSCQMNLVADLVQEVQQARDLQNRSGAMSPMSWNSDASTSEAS

How the values were obtained:
[1] = target: T1, CD95 (human (endogenous in SUIT-020 and HT29)), P25445; experiment: co-IP; DISC IP (anti-APO-1 antibody against CD95) from SUIT-020 cells treated with 500 ng/ml CD95L alone for the indicated timepoints, unstimulated sample included; western blot; details: remark: other sources report otherwise
T1 chain: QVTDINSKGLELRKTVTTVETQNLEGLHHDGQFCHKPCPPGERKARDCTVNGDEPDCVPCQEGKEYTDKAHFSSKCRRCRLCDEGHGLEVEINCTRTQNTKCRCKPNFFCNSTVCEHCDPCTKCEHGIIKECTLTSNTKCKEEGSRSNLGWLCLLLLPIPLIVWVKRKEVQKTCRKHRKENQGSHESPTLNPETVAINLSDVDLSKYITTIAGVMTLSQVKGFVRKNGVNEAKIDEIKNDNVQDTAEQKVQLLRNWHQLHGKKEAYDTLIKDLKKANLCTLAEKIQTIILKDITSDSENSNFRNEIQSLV

[2] = target: RIPK1 (human (endogenous in HT29, SUIT-020 and Jurkat)) (UniProt Q13546); experiment: co-IP; endogenous proteins; HT29, SUIT-020 or Jurkat cells pretreated 1 h with 5 µM BV6 and 50 µM zVAD-fmk (some samples also 10 µM Nec-1s), then 500 ng/ml CD95L; IP with 2 µg antibody against the bait, rotated overnight at 4 °C, washed four times with PBS; western blot
[3] = target: procaspase-8 (human (endogenous in HT29, SUIT-020 and Jurkat)) (UniProt Q14790); experiment: as above
[4] = target: phosphorylated form of RIPK1 (pRIPK1) (human (endogenous in HT29, SUIT-020 and Jurkat)) (UniProt Q13546); experiment: as above
[5] = target: FADD (human (endogenous in HT29, SUIT-020 and Jurkat)) (UniProt Q13158); experiment: as above
[6] = target: phosphorylated form of RIPK1 (pRIPK1) (human (endogenous in HT29, SUIT-020 and Jurkat)) (UniProt Q13546); experiment: co-IP; SUIT-020 cells, BV6/zVAD-fmk 1 h then 500 ng/ml CD95L 2 h; lysate fractionated on Superose 6 10/300 at 4 °C; IP from the pooled high molecular weight fractions 2–6; western blot

binding [1]: binds
B1: procaspase-8, Q14790 1-479 (protein)
chain: MDFSRNLYDIGEQLDSEDLASLKFLSLDYIPQRKQEPIKDALMLFQRLQEKRMLEESNLSFLKELLFRINRLDLLITYLNTRKEEMERELQTPGRAQISAYRVMLYQISEEVSRSELRSFKFLLQEEISKCKLDDDMNLLDIFIEMEKRVILGEGKLDILKRVCAQINKSLLKIINDYEEFSKERSSSLEGSPDEFSNGEELCGVMTISDSPREQDSESQTLDKVYQMKSKPRGYCLIINNHNFAKAREKVPKLHSIRDRNGTHLDAGALTTTFEELHFEIKPHDDCTVEQIYEILKIYQLMDHSNMDCFICCILSHGDKGIIYGTDGQEAPIYELTSQFTGLKCPSLAGKPKVFFIQACQGDNYQKGIPVETDSEEQPYLEMDLSSPQTRYIPDEADFLLGMATVNNCVSYRNPAEGTWYIQSLCQSLRERCPRGDDILTILTEVNYEVSNKDDKKNMGKQMPQPTFTLRKKLVFPSD

binding [2]: binds
binding [3]: binds
binding [4]: binds
binding [5]: binds
binding [6]: binds
B2: procaspase-10 (protein, UniProt Q92851 1-521)
chain: MKSQGQHWYSSSDKNCKVSFREKLLIIDSNLGVQDVENLKFLCIGLVPNKKLEKSSSASDVFEHLLAEDLLSEEDPFFLAELLYIIRQKKLLQHLNCTKEEVERLLPTRQRVSLFRNLLYELSEGIDSENLKDMIFLLKDSLPKTEMTSLSFLAFLEKQGKIDEDNLTCLEDLCKTVVPKLLRNIEKYKREKAIQIVTPPVDKEAESYQGEEELVSQTDVKTFLEALPQESWQNKHAGSNGNRATNGAPSLVSRGMQGASANTLNSETSTKRAAVYRMNRNHRGLCVIVNNHSFTSLKDRQGTHKDAEILSHVFQWLGFTVHIHNNVTKVEMEMVLQKQKCNPAHADGDCFVFCILTHGRFGAVYSSDEALIPIREIMSHFTALQCPRLAEKPKLFFIQACQGEEIQPSVSIEADALNPEQAPTSLQDSIPAEADFLLGLATVPGYVSFRHVEEGSWYIQSLCNHLKKLVPRMLKFLEKTMEIRGRKRTVWGAKQISATSLPTAISAQTPRPPMRRWSSVS
